# Values quoted from earlier work, collected in patent publication US7795302B2, “Use of compositions for treating rosacea” (The Regents of the University of Michigan, priority 2001, dated 2010).
# At least one compound was matched to its structure with a doubt left.
# System: AP-1
# Settings: DFO treatment 24 h prior to UVB irradiation
compound,measurement,value
"CC(=O)N(O)CCCCCNC(=O)CCC(=O)N(O)CCCCCNC(=O)CCC(=O)N(O)CCCCCN [DFO, Deferroxamine]",reduction of UVB-induced AP-1 transactivation,approximately 80%
